In this data set the target is BspQI (UniProt D2D3S6). As to the kind of experiment: enzyme reaction in vitro. Conditions: NEBuffer 3.1, 50 C, 1 h, CE assay; purified recombinant protein; protein details: untagged, NEB R0712L; label: 5'-FAM on forward strand (10% labelled).

The source of these data is patent US20230287376.

For “TGCCGCTTTCTGCATCAGCACATCATCTTCAGGCTCTTCGTCAGCCTCGCGCCGGTTCAG (double strand) [BspQI CE substrate]”, the “activity on this sequence” value is “active”.
